Publication PMC12292949

T1: H2A.B N-terminal peptide phosphorylated at S9 (human)
T1 sequence (peptide, phosphoserine at S9; C-terminally biotinylated): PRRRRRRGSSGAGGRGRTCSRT


Biological target: T1, H2A.B N-terminal peptide phosphorylated at S9 (human)
Test: affinity purification with mass spectrometry; SILAC: biotinylated unmodified or S9ph H2A.B N-terminal peptide on streptavidin beads, L428 nuclear extract, 2 h at 4 C, binding buffer with NP-40 reduced to 0.1%; washes with 350 mM NaCl; LC-MS/MS; only the target purified

binding | Binder
binds | proline-rich protein 11 (PRR11) (endogenous) (protein, UniProt Q96HE9 1-360) MPKFKQRRRKLKAKAERLFKKKEASHFQSKLITPPPPPPSPERVGISSIDISQSRSWLTSSWNFNFPNIRDAIKLWTNRVWSIYSWCQNCITQSLEVLKDTIFPSRICHRELYSVKQQFCILESKLCKLQEALKTISESSSCPSCGQTCHMSGKLTNVPACVLITPGDSKAVLPPTLPQPASHFPPPPPPPPLPPPPPPLAPVLLRKPSLAKALQAGPLKKDGPMQITVKDLLTVKLKKTQSLDEKRKLIPSPKARNPLVTVSDLQHVTLKPNSKVLSTRVTNVLITPGKSQMDLRKLLRKVDVERSPGGTPLTNKENMETGTGLTPVMTQALRRKFQLAHPRSPTPTLPLSTSSFDEQN
binds | TAF1D (endogenous) (protein, UniProt Q9H5J8 1-278) MDKSGIDSLDHVTSDAVELANRSDNSSDSSLFKTQCIPYSPKGEKRNPIRKFVRTPESVHASDSSSDSSFEPIPLTIKAIFERFKNRKKRYKKKKKRRYQPTGRPRGRPEGRRNPIYSLIDKKKQFRSRGSGFPFLESENEKNAPWRKILTFEQAVARGFFNYIEKLKYEHHLKESLKQMNVGEDLENEDFDSRRYKFLDDDGSISPIEESTAEDEDATHLEDNECDIKLAGDSFIVSSEFPVRLSVYLEEEDITEEAALSKKRATKAKNTGQRGLKM
binds | TAF1C (endogenous) (protein, UniProt Q15572 1-869) MDFPSSLRPALFLTGPLGLSDVPDLSFMCSWRDALTLPEAQPQNSENGALHVTKDLLWEPATPGPLPMLPPLIDPWDPGLTARDLLFRGGCRYRKRPRVVLDVTEQISRFLLDHGDVAFAPLGKLMLENFKLEGAGSRTKKKTVVSVKKLLQDLGGHQPWGCPWAYLSNRQRRFSILGGPILGTSVASHLAELLHEELVLRWEQLLLDEACTGGALAWVPGRTPQFGQLVYPAGGAQDRLHFQEVVLTPGDNPQFLGKPGRIQLQGPVRQVVTCTVQGESKALIYTFLPHWLTCYLTPGPFHPSSALLAVRSDYHCAVWKFGKQWQPTLLQAMQVEKGATGISLSPHLPGELAICSRSGAVCLWSPEDGLRQIYRDPETLVFRDSSSWRWADFTAHPRVLTVGDRTGVKMLDTQGPPGCGLLLFRLGAEASCQKGERVLLTQYLGHSSPKCLPPTLHLVCTQFSLYLVDERLPLVPMLKWNHGLPSPLLLARLLPPPRPSCVQPLLLGGQGGQLQLLHLAGEGASVPRLAGPPQSLPSRIDSLPAFPLLEPKIQWRLQERLKAPTIGLAAVVPPLPSAPTPGLVLFQLSAAGDVFYQQLRPQVDSSLRRDAGPPGDTQPDCHAPTASWTSQDTAGCSQWLKALLKVPLAPPVWTAPTFTHRQMLGSTELRREEEEGQRLGVLRKAMARGQLLLQRDLGSLPAAEPPPAPESGLEDKLSERLGEAWAGRGAAWWERQQGRTSEPGRQTRRPKRRTQLSSSFSLSGHVDPSEDTSSPHSPEWPPADALPLPPTTPPSQELTPDACAQGVPSEQRQMLRDYMAKLPPQRDTPGCATTPPHSQASSVRATRSQQHTPVLSSSQPLRKKPRMGF
binds | TCOF1 (endogenous) (protein, UniProt Q13428 1-1488) MAEARKRRELLPLIYHHLLRAGYVRAAREVKEQSGQKCFLAQPVTLLDIYTHWQQTSELGRKRKAEEDAALQAKKTRVSDPISTSESSEEEEEAEAETAKATPRLASTNSSVLGADLPSSMKEKAKAETEKAGKTGNSMPHPATGKTVANLLSGKSPRKSAEPSANTTLVSETEEEGSVPAFGAAAKPGMVSAGQADSSSEDTSSSSDETDVEGKPSVKPAQVKASSVSTKESPARKAAPAPGKVGDVTPQVKGGALPPAKRAKKPEEESESSEEGSESEEEAPAGTRSQVKASEKILQVRAASAPAKGTPGKGATPAPPGKAGAVASQTKAGKPEEDSESSSEESSDSEEETPAAKALLQAKASGKTSQVGAASAPAKESPRKGAAPAPPGKTGPAVAKAQAGKREEDSQSSSEESDSEEEAPAQAKPSGKAPQVRAASAPAKESPRKGAAPAPPRKTGPAAAQVQVGKQEEDSRSSSEESDSDREALAAMNAAQVKPLGKSPQVKPASTMGMGPLGKGAGPVPPGKVGPATPSAQVGKWEEDSESSSEESSDSSDGEVPTAVAPAQEKSLGNILQAKPTSSPAKGPPQKAGPVAVQVKAEKPMDNSESSEESSDSADSEEAPAAMTAAQAKPALKIPQTKACPKKTNTTASAKVAPVRVGTQAPRKAGTATSPAGSSPAVAGGTQRPAEDSSSSEESDSEEEKTGLAVTVGQAKSVGKGLQVKAASVPVKGSLGQGTAPVLPGKTGPTVTQVKAEKQEDSESSEEESDSEEAAASPAQVKTSVKKTQAKANPAAARAPSAKGTISAPGKVVTAAAQAKQRSPSKVKPPVRNPQNSTVLARGPASVPSVGKAVATAAQAQTGPEEDSGSSEEESDSEEEAETLAQVKPSGKTHQIRAALAPAKESPRKGAAPTPPGKTGPSAAQAGKQDDSGSSSEESDSDGEAPAAVTSAQVIKPPLIFVDPNRSPAGPAATPAQAQAASTPRKARASESTARSSSSESEDEDVIPATQCLTPGIRTNVVTMPTAHPRIAPKASMAGASSSKESSRISDGKKQEGPATQVSKKNPASLPLTQAALKVLAQKASEAQPPVARTQPSSGVDSAVGTLPATSPQSTSVQAKGTNKLRKPKLPEVQQATKAPESSDDSEDSSDSSSGSEEDGEGPQGAKSAHTLGPTPSRTETLVEETAAESSEDDVVAPSQSLLSGYMTPGLTPANSQASKATPKLDSSPSVSSTLAAKDDPDGKQEAKPQQAAGMLSPKTGGKEAASGTTPQKSRKPKKGAGNPQASTLALQSNITQCLLGQPWPLNEAQVQASVVKVLTELLEQERKKVVDTTKESSRKGWESRKRKLSGDQPAARTPRSKKKKKLGAGEGGEASVSPEKTSTTSKGKAKRDKASGDVKEKKGKGSLGSQGAKDEPEEELQKGMGTVEGGDQSNPKSKKEKKKSDKRKKDKEKKEKKKKAKKASTKDSESPSQKKKKKKKKTAEQTV
binds | TTF1 (endogenous) (protein, UniProt Q15361 1-905) MEGESSRFEIHTPVSDKKKKKCSIHKERPQKHSHEIFRDSSLVNEQSQITRRKKRKKDFQHLISSPLKKSRICDETANATSTLKKRKKRRYSALEVDEEAGVTVVLVDKENINNTPKHFRKDVDVVCVDMSIEQKLPRKPKTDKFQVLAKSHAHKSEALHSKVREKKNKKHQRKAASWESQRARDTLPQSESHQEESWLSVGPGGEITELPASAHKNKSKKKKKKSSNREYETLAMPEGSQAGREAGTDMQESQPTVGLDDETPQLLGPTHKKKSKKKKKKKSNHQEFEALAMPEGSQVGSEVGADMQESRPAVGLHGETAGIPAPAYKNKSKKKKKKSNHQEFEAVAMPESLESAYPEGSQVGSEVGTVEGSTALKGFKESNSTKKKSKKRKLTSVKRARVSGDDFSVPSKNSESTLFDSVEGDGAMMEEGVKSRPRQKKTQACLASKHVQEAPRLEPANEEHNVETAEDSEIRYLSADSGDADDSDADLGSAVKQLQEFIPNIKDRATSTIKRMYRDDLERFKEFKAQGVAIKFGKFSVKENKQLEKNVEDFLALTGIESADKLLYTDRYPEEKSVITNLKRRYSFRLHIGRNIARPWKLIYYRAKKMFDVNNYKGRYSEGDTEKLKMYHSLLGNDWKTIGEMVARSSLSVALKFSQISSQRNRGAWSKSETRKLIKAVEEVILKKMSPQELKEVDSKLQENPESCLSIVREKLYKGISWVEVEAKVQTRNWMQCKSKWTEILTKRMTNGRRIYYGMNALRAKVSLIERLYEINVEDTNEIDWEDLASAIGDVPPSYVQTKFSRLKAVYVPFWQKKTFPEIIDYLYETTLPLLKEKLEKMMEKKGTKIQTPAAPKQVFPFRDIFYYEDDSEGEDIEKESEGQAPCMAHACNSSTLGGQGRWII

Results are given in words; binding and its absence hold for the method and conditions named. In cells and extracts the contact can be indirect. These calls come from enrichment with a bait or labelling near it, and not all partners need be listed.
